# Tested on: peptide-specific IgE
# Assay: ELISA of peptide-specific serum IgE
# Format: binding, human
# Conditions: patients vaccinated with non-allergic CypB91 (2 or 3 doses), ART475 (3, 9, 15 doses) or SART3109 (11, 17 doses)
sequence,measurement,value
DYPSLSATDI [ART475],IgE to the peptide in serum after vaccination,increased

# Reference: patent US20060035291A1, “Method of detecting cellular immunity and application thereof to drugs” (priority 2001, published 2006)
